# Some of the results follow.
# Legend:
# Experiment in all cases: glycan array binding signal (z-score within array); higher = stronger binding
# Settings in all cases: glycan notation: IUPAC condensed, linker removed
# [1] = target: GlcNAc6S(b1-3)Gal(b1-4)GlcNAc
# Method in brief: (§1)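 Arrays were curated from the Consortium for Functional Glycomics database, 3228 in total, and kept only where the protein sequence was available. Binding is expressed as a within-array Z-score. This score was averaged across arrays of the same protein sequence at different concentrations or buffers and across linkers, and negative values can be read as non-binding.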
# Kdn(a2-3)Gal(b1-3)GalNAc = target: Kdn(a2-3)Gal(b1-3)GalNAc
# Method in brief: as §1
# Kdn(a2-3)Gal(b1-3)GlcNAc = target: Kdn(a2-3)Gal(b1-3)GlcNAc
# Method in brief: as §1
# Kdn(a2-3)Gal(b1-4)Glc = target: Kdn(a2-3)Gal(b1-4)Glc
# Method in brief: as §1
# Kdn(a2-3)Gal(b1-4)GlcNAc = target: Kdn(a2-3)Gal(b1-4)GlcNAc
# Method in brief: as §1
# [2] = target: Kdn(a2-3)Gal(b1-4)[Fuc(a1-3)]GlcNAc
# Method in brief: as §1
# Kdn(a2-6)Gal(b1-4)GlcNAc = target: Kdn(a2-6)Gal(b1-4)GlcNAc
# Method in brief: as §1
# [3] = target: Man(a1-2)Man(a1-2)Man(a1-3)Man
# Method in brief: as §1
# [4] = target: Man(a1-2)Man(a1-2)Man(a1-6)[Man(a1-3)]Man
# Method in brief: as §1
# Man(a1-2)Man(a1-3)Man = target: Man(a1-2)Man(a1-3)Man
# Method in brief: as §1
# [5] = target: Man(a1-2)Man(a1-3)[Man(a1-2)Man(a1-6)]Man
# Method in brief: as §1
# [6] = target: Man(a1-2)Man(a1-3)[Man(a1-2)Man(a1-6)]Man(a1-6)[Man(a1-2)Man(a1-2)Man(a1-3)]Man
# Method in brief: as §1
# [7] = target: Man(a1-2)Man(a1-3)[Man(a1-2)Man(a1-6)]Man(a1-6)[Man(a1-2)Man(a1-2)Man(a1-3)]Man(b1-4)GlcNAc(b1-4)GlcNAc
# Method in brief: as §1
# [8] = target: Man(a1-2)Man(a1-3)[Man(a1-6)]Man(a1-6)[Man(a1-2)Man(a1-3)]Man(b1-4)GlcNAc(b1-4)GlcNAc
# Method in brief: as §1
# [9] = target: Man(a1-2)Man(a1-6)[Man(a1-3)]Man(a1-6)[Man(a1-2)Man(a1-2)Man(a1-3)]Man
# Method in brief: as §1
# [10] = target: Man(a1-2)Man(a1-6)[Man(a1-3)]Man(a1-6)[Man(a1-2)Man(a1-2)Man(a1-3)]Man(b1-4)GlcNAc(b1-4)GlcNAc
# Method in brief: as §1
# Man(a1-3)[Man(a1-6)]Man = target: Man(a1-3)[Man(a1-6)]Man
# Method in brief: as §1
# [11] = target: Man(a1-3)[Man(a1-6)]Man(a1-6)[Man(a1-2)Man(a1-3)]Man(b1-4)GlcNAc(b1-4)GlcNAc
# Method in brief: as §1
# [12] = target: Man(a1-3)[Man(a1-6)]Man(a1-6)[Man(a1-3)]Man
# Method in brief: as §1
# [13] = target: Man(a1-3)[Man(a1-6)]Man(a1-6)[Man(a1-3)]Man(b1-4)GlcNAc(b1-4)GlcNAc
# Method in brief: as §1
# [14] = target: Man(a1-3)[Man(a1-6)]Man(b1-4)GlcNAc(b1-4)GlcNAc
# Method in brief: as §1
# Man(a1-6)Man = target: Man(a1-6)Man
# Method in brief: as §1
# Man(b1-4)GlcNAc = target: Man(b1-4)GlcNAc
# Method in brief: as §1
# Neu5Ac(a2-3)Gal = target: Neu5Ac(a2-3)Gal
# Method in brief: as §1
# [15] = target: Neu5Ac(a2-3)Gal(b1-3)GalNAc
# Method in brief: as §1
# [16] = target: Neu5Ac(a2-3)Gal(b1-3)GalNAc(b1-3)Gal(a1-4)Gal(b1-4)Glc
# Method in brief: as §1
# [17] = target: Neu5Ac(a2-3)Gal(b1-3)GalNAc(b1-4)[Neu5Ac(a2-3)]Gal(b1-4)Glc
# Method in brief: as §1
# [18] = target: Neu5Ac(a2-3)Gal(b1-3)GalNAc6S
# Method in brief: as §1
# [19] = target: Neu5Ac(a2-3)Gal(b1-3)GlcNAc
# Method in brief: as §1
# [20] = target: Neu5Ac(a2-3)Gal(b1-3)GlcNAc(b1-2)Man(a1-3)[Neu5Ac(a2-3)Gal(b1-3)GlcNAc(b1-2)Man(a1-6)]Man(b1-4)GlcNAc(b1-4)GlcNAc
# Method in brief: as §1
# [21] = target: Neu5Ac(a2-3)Gal(b1-3)GlcNAc(b1-3)Gal(b1-3)GlcNAc
# Method in brief: as §1
# [22] = target: Neu5Ac(a2-3)Gal(b1-3)GlcNAc(b1-3)Gal(b1-4)GlcNAc
# Method in brief: as §1
# [23] = target: Neu5Ac(a2-3)Gal(b1-3)GlcNAc(b1-3)GalNAc
# Method in brief: as §1
# [24] = target: Neu5Ac(a2-3)Gal(b1-3)GlcNAc6S
# Method in brief: as §1
# [25] = target: Neu5Ac(a2-3)Gal(b1-3)[Fuc(a1-4)]GlcNAc
# Method in brief: as §1
# [26] = target: Neu5Ac(a2-3)Gal(b1-3)[Fuc(a1-4)]GlcNAc(b1-3)Gal(b1-3)[Fuc(a1-4)]GlcNAc
# Method in brief: as §1
# [27] = target: Neu5Ac(a2-3)Gal(b1-3)[Fuc(a1-4)]GlcNAc(b1-3)Gal(b1-4)[Fuc(a1-3)]GlcNAc
# Method in brief: as §1
# [28] = target: Neu5Ac(a2-3)Gal(b1-3)[Neu5Ac(a2-3)Gal(b1-4)]GlcNAc
# Method in brief: as §1
# [29] = target: Neu5Ac(a2-3)Gal(b1-3)[Neu5Ac(a2-6)]GalNAc
# Method in brief: as §1
# Neu5Ac(a2-3)Gal(b1-4)Glc = target: Neu5Ac(a2-3)Gal(b1-4)Glc
# Method in brief: as §1
# [30] = target: Neu5Ac(a2-3)Gal(b1-4)GlcNAc
# Method in brief: as §1
# [31] = target: Neu5Ac(a2-3)Gal(b1-4)GlcNAc(b1-2)Man(a1-3)[GlcNAc(b1-2)Man(b1-4)GlcNAc(b1-2)Man(a1-6)]Man(b1-4)GlcNAc(b1-4)GlcNAc
# Method in brief: as §1
# [32] = target: Neu5Ac(a2-3)Gal(b1-4)GlcNAc(b1-2)Man(a1-3)[Neu5Ac(a2-6)Gal(b1-4)GlcNAc(b1-2)Man(a1-6)]Man(b1-4)GlcNAc(b1-4)GlcNAc
# Method in brief: as §1
# [33] = target: Neu5Ac(a2-3)Gal(b1-4)GlcNAc(b1-3)Gal(b1-3)GlcNAc
# Method in brief: as §1
# [34] = target: Neu5Ac(a2-3)Gal(b1-4)GlcNAc(b1-3)Gal(b1-4)GlcNAc
# Method in brief: as §1
# [35] = target: Neu5Ac(a2-3)Gal(b1-4)GlcNAc(b1-3)Gal(b1-4)GlcNAc(b1-3)Gal(b1-4)GlcNAc
# Method in brief: as §1
# [36] = target: Neu5Ac(a2-3)Gal(b1-4)GlcNAc(b1-3)Gal(b1-4)[Fuc(a1-3)]GlcNAc
# Method in brief: as §1
# [37] = target: Neu5Ac(a2-3)Gal(b1-4)GlcNAc(b1-3)GalNAc
# Method in brief: as §1
# [38] = target: Neu5Ac(a2-3)Gal(b1-4)GlcNAc(b1-6)[Gal(b1-3)]GalNAc
# Method in brief: as §1
# [39] = target: Neu5Ac(a2-3)Gal(b1-4)GlcNAc(b1-6)[Neu5Ac(a2-3)Gal(b1-3)]GalNAc
# Method in brief: as §1
# [40] = target: Neu5Ac(a2-3)Gal(b1-4)GlcNAc6S
# Method in brief: as §1
# [41] = target: Neu5Ac(a2-3)Gal(b1-4)[Fuc(a1-3)]GlcNAc
# Method in brief: as §1
# [42] = target: Neu5Ac(a2-3)Gal(b1-4)[Fuc(a1-3)]GlcNAc(b1-3)Gal
# Method in brief: as §1
# [43] = target: Neu5Ac(a2-3)Gal(b1-4)[Fuc(a1-3)]GlcNAc(b1-3)Gal(b1-4)GlcNAc
# Method in brief: as §1
# [44] = target: Neu5Ac(a2-3)Gal(b1-4)[Fuc(a1-3)]GlcNAc(b1-3)Gal(b1-4)[Fuc(a1-3)]GlcNAc(b1-3)Gal(b1-4)[Fuc(a1-3)]GlcNAc
# Method in brief: as §1
binder,measurement,setting,value
"MIC2 (Toxoplasma gondii), S8F9G8 (protein) MRLQREAVFGLMFACGMWMWPSEVAGGGWSIVDALRKRYDTSRGGDANGVDTSGVEDVIQSESAIGAAEGCTNQLDICFLIDSSGSIGIQNFRLVKQFLHTFLMVLPIGPEEVNNAVVTYSTDVHLQWDLQSPNAVDKQLAAHAVLDMPYKKGSTNTSDGLKACKQILFTGSRPGREHVPKLVIGMTDGESDSDFRTVRAAKEIRELGGIVTVLAVGHYVKHSECRSMCGCSGTSDDDSPCPLYLRADWGQLATAIKPMLKEVCKTLPQDAICSDWSAWSPCSVSCGDGSQIRTRTEVSAPQPGTPTCPDCPAPMGRTCVEQGGLEEIRECSAGVCAVDAGCGVWGEWSAWSASCGNATRKRERTRYNDPPPQGAGRRCENQDPPVLQEQTEEATLAPCITIPPTPPEWAAWSDCTVTCGGGNRHRVRNALPPGLGSQNGESDESLVSKLWPGTDLRQEEACNTSPCPINATCGQFEEWSTCSVSCGGGLKTRSRNPWNEDQQHGGLSCEQQHPGGRTETITCNPQACPVDERPGEWAEWGECSVTCGDGVRERRRGKSLVEAKFGGRTIDQQNEALPEDLKIKNVEYEPCSYPACGASCTYVWSDWNKCVCPMGYQARHAAVKFDYRNKPCDLPTFETKACSCGETNPVPSEGTTPGAPGATGPEQPNQRPLPEGSDENETPTNEEGEQSKKESGSGIAGAIAGGVIGGLILLGAAGGASYHYYLSSSVGSPSAEIEYEADDGATKVVMEEEKETLVPVDDDSDMWME",glycan array binding signal (z-score),[1],0.158
same,glycan array binding signal (z-score),Kdn(a2-3)Gal(b1-3)GalNAc,-0.355
same,glycan array binding signal (z-score),Kdn(a2-3)Gal(b1-3)GlcNAc,-0.014
same,glycan array binding signal (z-score),Kdn(a2-3)Gal(b1-4)Glc,-0.475
same,glycan array binding signal (z-score),Kdn(a2-3)Gal(b1-4)GlcNAc,0.304
same,glycan array binding signal (z-score),[2],2.02
same,glycan array binding signal (z-score),Kdn(a2-6)Gal(b1-4)GlcNAc,-0.171
same,glycan array binding signal (z-score),[3],-0.235
same,glycan array binding signal (z-score),[4],-0.891
same,glycan array binding signal (z-score),Man(a1-2)Man(a1-3)Man,-0.444
same,glycan array binding signal (z-score),[5],-0.278
same,glycan array binding signal (z-score),[6],-0.307
same,glycan array binding signal (z-score),[7],0.876
same,glycan array binding signal (z-score),[8],-0.97
same,glycan array binding signal (z-score),[9],-0.016
same,glycan array binding signal (z-score),[10],-0.803
same,glycan array binding signal (z-score),Man(a1-3)[Man(a1-6)]Man,-0.69
same,glycan array binding signal (z-score),[11],0.527
same,glycan array binding signal (z-score),[12],-0.461
same,glycan array binding signal (z-score),[13],0.61
same,glycan array binding signal (z-score),[14],-0.561
same,glycan array binding signal (z-score),Man(a1-6)Man,-0.81
same,glycan array binding signal (z-score),Man(b1-4)GlcNAc,0.368
same,glycan array binding signal (z-score),Neu5Ac(a2-3)Gal,0.102
same,glycan array binding signal (z-score),[15],-0.321
same,glycan array binding signal (z-score),[16],0.008
same,glycan array binding signal (z-score),[17],0.556
same,glycan array binding signal (z-score),[18],-0.446
same,glycan array binding signal (z-score),[19],-0.254
same,glycan array binding signal (z-score),[20],-1.07
same,glycan array binding signal (z-score),[21],-0.331
same,glycan array binding signal (z-score),[22],-0.031
same,glycan array binding signal (z-score),[23],-0.407
same,glycan array binding signal (z-score),[24],0.518
same,glycan array binding signal (z-score),[25],-1.11
same,glycan array binding signal (z-score),[26],0.89
same,glycan array binding signal (z-score),[27],-0.271
same,glycan array binding signal (z-score),[28],-1.06
same,glycan array binding signal (z-score),[29],0.368
same,glycan array binding signal (z-score),Neu5Ac(a2-3)Gal(b1-4)Glc,-0.601
same,glycan array binding signal (z-score),[30],0.221
same,glycan array binding signal (z-score),[31],-0.575
same,glycan array binding signal (z-score),[32],-0.088
same,glycan array binding signal (z-score),[33],-0.156
same,glycan array binding signal (z-score),[34],-0.177
same,glycan array binding signal (z-score),[35],-0.616
same,glycan array binding signal (z-score),[36],0.678
same,glycan array binding signal (z-score),[37],-0.65
same,glycan array binding signal (z-score),[38],-0.459
same,glycan array binding signal (z-score),[39],0.452
same,glycan array binding signal (z-score),[40],0.052
same,glycan array binding signal (z-score),[41],-0.787
same,glycan array binding signal (z-score),[42],-0.967
same,glycan array binding signal (z-score),[43],1.5
same,glycan array binding signal (z-score),[44],-0.934

# Reference: the supplement of paper PMC8728848
